Library screen at single concentrations

Amino acid sequences for entries named in this document (tags omitted). Residues count along the entry.
UniProt P9WPC5, whole entry: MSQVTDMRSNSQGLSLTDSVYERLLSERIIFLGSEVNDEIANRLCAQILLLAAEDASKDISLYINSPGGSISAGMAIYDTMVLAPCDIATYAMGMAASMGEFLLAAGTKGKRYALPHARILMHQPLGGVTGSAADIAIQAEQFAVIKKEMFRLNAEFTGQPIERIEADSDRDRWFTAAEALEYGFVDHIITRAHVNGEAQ
UniProt P9WPC3, whole entry partner: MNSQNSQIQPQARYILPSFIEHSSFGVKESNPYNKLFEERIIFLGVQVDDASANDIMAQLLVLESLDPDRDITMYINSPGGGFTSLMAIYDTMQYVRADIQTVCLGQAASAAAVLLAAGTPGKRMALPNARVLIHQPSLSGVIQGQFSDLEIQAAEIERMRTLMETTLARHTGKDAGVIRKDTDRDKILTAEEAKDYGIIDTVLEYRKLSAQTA
UniProt Q8IDJ8, 1-583: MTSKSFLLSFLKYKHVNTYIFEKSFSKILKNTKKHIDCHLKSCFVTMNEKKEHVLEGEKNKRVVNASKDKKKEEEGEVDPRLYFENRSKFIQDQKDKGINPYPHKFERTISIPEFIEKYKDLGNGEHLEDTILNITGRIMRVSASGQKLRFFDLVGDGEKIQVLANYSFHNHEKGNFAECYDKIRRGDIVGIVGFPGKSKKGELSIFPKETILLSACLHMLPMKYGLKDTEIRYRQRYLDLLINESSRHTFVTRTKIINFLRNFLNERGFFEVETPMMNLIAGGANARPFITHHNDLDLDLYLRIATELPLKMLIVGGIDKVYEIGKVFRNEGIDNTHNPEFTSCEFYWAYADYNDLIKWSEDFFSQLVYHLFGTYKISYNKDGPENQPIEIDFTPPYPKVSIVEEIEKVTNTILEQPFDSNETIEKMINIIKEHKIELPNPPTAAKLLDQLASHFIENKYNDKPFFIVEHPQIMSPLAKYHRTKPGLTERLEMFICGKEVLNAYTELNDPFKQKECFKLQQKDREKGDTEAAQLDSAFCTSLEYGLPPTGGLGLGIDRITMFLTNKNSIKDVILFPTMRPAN

A: 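Cell assay of Leishmania donovani living inside macrophages; the read-out is not stated. Tested at 30 µM. The record gives no direction; compounds that gave an IC50 in retests scored well above the rest, so higher reads as stronger inhibition. Of about 69,000 compounds tested this way, about 1,000 (1.5%) reached 50% or more in at least one test.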
B: 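Protease assay of ClpP1P2, read by the AMC dye that it sets free. Target: ClpP1P2, Mycobacterium tuberculosis (UniProt P9WPC5 and UniProt P9WPC3). Compounds at 50 µM. Higher reads as stronger inhibition, judged from the few compounds that gave an IC50. Most other retested compounds had strongly negative values. Size under these conditions: about 69,000 compounds, about 10 of them at 50% or above in at least one test.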
C: 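Assay of Toxoplasma gondii numbers, read through their beta-galactosidase reporter with a colour substrate. Tested at 10 µM. The record gives no direction; the compounds picked for IC50 retests had high values, so higher reads as fewer parasites. Of about 67,000 compounds tested this way, about 260 (0.38%) reached 50% or more in at least one test.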
D: 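Enzyme assay of the cytosolic lysyl-tRNA synthetase in 384-well plates, read by luminescence. Target: Lysine-tRNA ligase, Plasmodium falciparum 3D7 (UniProt Q8IDJ8). Tested at 30 µM. Higher reads as stronger inhibition, judged from the few compounds that gave an IC50. Of about 69,000 compounds tested this way, about 49 (0.071%) reached 50% or more in at least one test.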

Results are given as percent effect.
How 0% and 100% were set is not recorded. Most values in the screen are low, and negative values occur.
Compounds were drawn at random from those tested, without regard to their results.
Two or more numbers in one place are separate tests of the same structure; such repeats can differ widely.

structure: C[S+]([O-])c1nncn1CC(=O)c1cccc(C(F)(F)F)c1 (centres undefined)
A: 0.6667
B: 0.8084
C: 4
D: 3.771

structure: Cc1cc(C)n(C2CCN(S(=O)(=O)N3CCC(C)CC3)CC2)n1
A: -7.758
B: -20.13
C: -9.345
D: 0.6658

structure: COCCN1CCC2(CC1)COc1ccccc1S(=O)(=O)N(C)C2
A: 3.891
B: -11.01
C: 11.21
D: 2.848

structure: Cc1cc(C(=O)NCC2CCCO2)c(C)n1-c1cccnc1 (centres undefined)
A: 22.62
B: -6.855
C: 10.8
D: -2.114

structure: Cc1nnc(C(NS(=O)(=O)c2cc(C)c(F)cc2F)C(C)C)[nH]1 (centres undefined)
A: -9.807
B: -1.166
C: 1.023
D: 8.422

structure: CN1CCN(C(=O)c2nc3c(s2)CCCN3C(=O)C2CC2)CC1
B: -27.74
D: -0.8107

structure: CN(Cc1ccncc1)CC1CCCN(CCc2ccc(Cl)cc2)C1 (centres undefined)
A: 66.11 & 68.51
B: -9.547
C: 0.9235
D: 4.126

structure: CC(=O)N1CCCC2(CCN(Cc3ccc(Cl)c(F)c3)C2)C1 (centres undefined)
A: 3.397
B: -2.504
C: -18.82
D: 1.427

structure: O=C(CCc1cncc(F)c1)NS(=O)(=O)c1ccc(F)cc1F
A: 5.699
B: -1.831
C: 5.455
D: 14.66

structure: [H][C@@]12CCC(=O)N(CCC3=CCCCC3)[C@]1([H])CCN(S(C)(=O)=O)C2
A: -11.52
C: 5.461

structure: [H][C@]12CC[C@]([H])(CN(Cc3cscn3)C1)N(C(=O)C1(C#N)CCOCC1)C2
A: 0.3807
C: 3.604

structure: Cc1cccc(-c2noc(CN3CCCCC3Cn3cncn3)n2)c1 (centres undefined)
A: 19.68
B: -9.911
C: -1.833
D: 2.233

structure: CCn1c(CN2CCCC2)nnc1C1CCN(Cc2ccccn2)CC1
A: -7.35
B: -4.814
C: 5.365
D: 3.994

structure: CC(=O)NCC1CCC2(CCN(c3ncnc4oc(C)nc34)CC2)O1 (centres undefined)
A: 24.95
B: -19.44
C: 1.627
D: 2.396

structure: Fc1cnc(N2CCCn3c(CN4CCOCC4)nnc3C2)nc1.O=C(O)C(F)(F)F.O=C(O)C(F)(F)F
A: 38.63
C: -11.49

structure: Cc1cc2ccccc2n1CCC(=O)NCCS(C)(=O)=O
A: 35.43
B: -19.59
C: -1.373
D: 3.106

structure: [H][C@@]12CCCC[C@]1(O)CCN(C(=O)c1cc(CN(CC)CC)oc1C)C2
A: 8.48
C: -5.351

structure: CC1CN(CC(=O)NC2CCCC2)CCN1c1ccc2nncn2n1 (centres undefined)
A: 12.16
B: 18.23
C: -26.39
D: 1.032

structure: CCNC(=O)N1CCN(Cc2nc3ccccc3[nH]2)[C@@H]2CS(=O)(=O)C[C@@H]21
B: -12.26
D: 3.568

structure: O=C(O)C(F)(F)F.[H][C@@]12CCN(c3ccc(C)nn3)[C@]1([H])CC[C@@H](C(=O)NCc1ccco1)O2
A: 16.85
C: 1.13

structure: CCC(NC(=O)CC1CCN(C(C)C)CC1)c1cn2cccnc2n1 (centres undefined)
A: 12.73
B: -8.847
C: 0.6242
D: 8.913

structure: COc1cccc(-c2noc(C3CCN(CC4CCCCC4)C3)n2)c1.Cl (centres undefined)
A: 5.234 & 1.322
C: 17.24

structure: CN(C)S(=O)(=O)N1CC[C@]2(O)CCN(CCCc3cccnc3)C[C@@H]2C1
B: -8.745
D: 1.405

structure: CC(C)NC(=O)c1nn(C)c(NC(=O)Cc2ccccc2)c1F
A: 2.932
B: 11.91
C: 1.234
D: 5.392

structure: O=C(CC1CC1)N1CCCn2nnc(CNc3ncccn3)c2C1
A: 7.517
B: -3.151
C: 10.96
D: 1.364

structure: O=C(CN1CCC(c2ccccc2)C1)NC(=O)NCC(F)(F)F (centres undefined)
A: 3.315
B: -30.31
C: -14.65
D: -2.369

Some entries from above, unchanged:

structure	A	B	C	D
CN(Cc1ccncc1)CC1CCCN(CCc2ccc(Cl)cc2)C1 (centres undefined)	66.11 & 68.51	-9.547	0.9235	4.126
Cc1cc(C(=O)NCC2CCCO2)c(C)n1-c1cccnc1 (centres undefined)	22.62	-6.855	10.8	-2.114
C[S+]([O-])c1nncn1CC(=O)c1cccc(C(F)(F)F)c1 (centres undefined)	0.6667	0.8084	4	3.771

Measurements from “University of Dundee, Small-Polar-MMV Screening Library” (2021), ChEMBL document CHEMBL3988442.